Source: ChEMBL document CHEMBL3988442, “University of Dundee, Small-Polar-MMV Screening Library” (2021).

Protein sequences, listed by entry. Tags and fused reporters are not part of them.
UniProt P9WFT3, whole entry: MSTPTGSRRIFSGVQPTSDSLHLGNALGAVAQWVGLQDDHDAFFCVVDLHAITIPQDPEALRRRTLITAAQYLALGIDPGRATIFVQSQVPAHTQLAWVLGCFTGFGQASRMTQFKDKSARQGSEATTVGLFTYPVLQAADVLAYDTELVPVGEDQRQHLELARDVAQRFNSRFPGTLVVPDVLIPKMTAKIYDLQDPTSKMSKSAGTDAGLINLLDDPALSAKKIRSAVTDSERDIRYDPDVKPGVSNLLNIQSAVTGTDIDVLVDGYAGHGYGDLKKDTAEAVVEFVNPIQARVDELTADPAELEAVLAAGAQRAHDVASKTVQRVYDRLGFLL

The filed quantity is “Percent Effect” (%).
The controls that fix the scale are not given in the record; negative values are as filed.
Compounds were drawn at random from those tested, without regard to their results.
Two or more numbers in one place are separate tests of the same structure; such repeats can differ widely.
A dash means the value is not listed here; it may have been measured.

MtTrpRS: 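Enzyme assay of tryptophanyl-tRNA synthetase; the read-out is not stated. Target: Tryptophan-tRNA ligase, Mycobacterium tuberculosis (UniProt P9WFT3). Tested at 10 µM. Direction is not recorded; retested compounds ran higher, which suggests that high means inhibition. Size under these conditions: about 65,000 compounds, about 64 of them at 50% or above in at least one test.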
Leishmania in macrophages: 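Cell assay of Leishmania donovani living inside macrophages; the read-out is not stated. Tested at 30 µM. Direction is inferred from retests: higher values go with stronger inhibition. About 69,000 compounds were tested under these conditions; 1.5% (about 1,000) showed 50% or more at least once.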

compound | MtTrpRS | Leishmania in macrophages
COc1c(CNC2CCc3c(Cl)cccc32)c(C)nn1C.Cl (stereo not given) | - | 56.04
Cc1cc(C)n(C2CN(Cc3noc(-c4ccccc4)n3)C2)n1 | -2.568 | 19.96
CNC(=O)C1(c2cnccn2)CCCN1C(=O)c1cccc(C)n1 (stereo not given) | - | 16.91
O=C(O)C(F)(F)F.O[C@@H]1CCN(CC2CC2)[C@H]1Cc1ccccc1 | - | 45.29
O=C(Cn1nnn(-c2cccs2)c1=O)N(CC1CCOC1)C1CC1 (stereo not given) | 1.854 | 10.44
CCNC(=O)C1(Cc2ccc(-c3ccccc3)cc2)CCCNC1 (stereo not given) | 4.606 | -0.8194
CCc1ncc(C(=O)N(CCOC)Cc2nccs2)cn1 | 2.918 | 14.59
Cc1ccoc1C(=O)N1CC[C@H]2O[C@@H](C)C[C@H]2C1 | 3.463 | -
[H][C@@]12OCCN(C(=O)c3ccncc3)[C@@]1([H])CC[C@H]2OCCN(C)C | - | 0.03113
COc1ccc(F)c(F)c1CN1CCN(CC(C)C)C(=O)C1C (stereo not given) | -0.2564 | -27.36
Cc1cccc(C(C)CNC(=O)N2CCOCC3(CCOCC3)C2)c1 (stereo not given) | -0.07788 | 22.56
Cc1nn(C)c(C)c1CN1CCCC(c2ccc(C(=O)O)cc2)C1 (stereo not given) | 2.051 | 20.41
Cc1ccc(-c2nnc(SCC(=O)O)n2-c2ccccc2)cc1 | - | -2.477
O[C@H]1[C@H](n2cc(-c3ccccn3)nn2)c2ccccc2C12CCNCC2 | -2.308 | 0.9386
COc1ccc(CN2CCO[C@H]3[C@H](OCCN4CCCC4)CC[C@@H]32)cc1 | -4.167 | -
O=C(NCc1ccccc1)N1CCC(Oc2ncccc2Cl)CC1 | 15.44 | -1.815
[H][C@@]12CCN(C3CCC3)[C@]1([H])CC[C@@H](c1nnc(C)o1)O2 | - | 13.5
CCN(Cc1ccncc1)CC1(C)Cc2c(N)nc(N)nc2O1 (stereo not given) | -8.984 | 28.23
[H][C@@]12COC[C@]1(CNS(C)(=O)=O)CN(C(=O)c1occc1C)C2 | - | 10.28 and 8.853
O=C(CSc1ccc2c(c1)OCCO2)NS(=O)(=O)c1cc(F)ccc1F | -1.754 | 4.13
N#Cc1cccnc1OC1CCN(S(=O)(=O)c2ccc(F)c(Cl)c2)CC1 | 0 | 6.462
COCCCC(=O)NCc1cccc(NC(N)=O)c1 | -1.687 | 24.25
O=C(O)C(F)(F)F.[H][C@@]12CN(Cc3ccoc3)CCO[C@]1([H])CN(C(=O)c1sccc1C)C2 | - | 23.19
Cc1ccc(N2CCCc3sc(C(=O)NCC4CCCO4)nc32)nn1 (stereo not given) | -5.053 | 6.13
COCCCN1C(=O)c2ccc(C(=O)NCCc3c[nH]cn3)cc2C1=O | 2.026 | -12.99 and -26.96
O=C(CN1CCOCS1(=O)=O)NCCc1ccc(Cl)cc1 | -3.827 | 2.885
COc1ccccc1N1CCN(C(=O)CCc2nncn2C)C(C)C1 (stereo not given) | -4.082 | -2.849
O=C(c1ccccn1)N1CCN(c2cnnc(N3CCCC3)c2)CC1 | 1.112 | -2.821
O=C(c1ccc2ccccc2c1)C1CCCN(C(=O)Cn2cncn2)C1 (stereo not given) | -1.445 | -27.02
c1cnc(N2CCCC3(CCN(CC4CC4)C3)C2)nc1 (stereo not given) | -8.642 | -
Cc1ccc(C(C)(C)CNC(=O)NC(C)Cn2cncn2)cc1 (stereo not given) | -2.224 | -14.1
Cc1cc(C(=O)NC2(c3ccc(Br)cc3)CC2)n(C)n1 | 2.725 | 45.48
CN(Cc1c(F)cccc1Cl)C(=O)c1cnn(CCN2CCCCC2)c1 | -0.3458 | -12.41
[H][C@]12CC[C@]([H])(CN(CC(=O)N(C)C)C1)N(C(=O)CCn1cncn1)C2 | - | -4.637
Cc1nn(C)c(Cl)c1C1CCCN1C(=O)c1ccc(O)nc1 (stereo not given) | 10.33 | -9.764
CC(=O)c1ccc(NCc2cc3n(n2)CCCN(S(C)(=O)=O)C3)nc1 | -4.131 | 21.01
Cc1cc(CN2CCOCS2(=O)=O)ccc1F | -1.316 | 17.45
O=C(COCc1ccccc1)NCc1ccc(O)c(F)c1 | -4.397 | 6.107
CC(C)(C)CC(=O)NC[C@H]1OC[C@@H](NC2CCC(F)(F)CC2)[C@@H]1O | -2.504 | -87.59
Cn1nc(Cn2cccc2)c2c1CN(Cc1ccsc1)C2.O=C(O)C(F)(F)F | - | 33.61
CC(C)c1cc(C(=O)NCC(O)C2CCOCC2)nn1C(C)(C)C (stereo not given) | -5.641 | -26.72
CC(C)C(C)N(Cc1ccccn1)Cc1ccco1 (stereo not given) | -0.1485 | -2.876
CSCCC1CC(=O)Nc2cc(O)c(C)cc21 (stereo not given) | 0.6791 | 22.9
CCC(C(=O)NCC1CCN(c2ccncc2)CC1)N(C)C (stereo not given) | -1.492 | 6.05
CCOc1ccc(NC(=O)N2CCOC(C(N)=O)C2)cc1Cl (stereo not given) | -1.826 | 18.02
COc1ccnc(CNc2nc(C)nc(C)c2C)c1 | -0.9046 | 39.23
O=C(NCc1ccc(Br)c(F)c1)Nc1cn[nH]c1 | -0.306 | -56.62
Cc1nn(C)cc1-c1ccnc(N(C)Cc2ccon2)n1 | -0.7807 | 0.144
C[C@@H](NC(=O)c1cnccn1)c1c(-c2ccc(Cl)cc2)noc1C(=O)O | 0.2259 | -
CC(=O)N(Cc1ncc(C)o1)C1CCN(Cc2nnc(C3CC3)o2)C1 (stereo not given) | -2.288 | -25.41 and -41.6
CCOc1ccccc1NC(=O)CN(C)Cc1ccccc1Cl | -2.058 | 52.93
COc1c(CNCC(O)COc2ccc3c(c2)OCO3)c(C)nn1C (stereo not given) | 7.149 | -7.779
Cc1noc(C)c1CNC(=O)N1CCC(OCC2CC2)CC1 | 1.616 | -11.49
COc1ncccc1CNC1CCc2c(ccc(=O)n2C)C1.O=C(O)C(F)(F)F.O=C(O)C(F)(F)F (stereo not given) | - | 16.4

For reference, 5 entries once more:

* CCc1ncc(C(=O)N(CCOC)Cc2nccs2)cn1 | MtTrpRS: 2.918%; Leishmania in macrophages: 14.59%
* Cc1ccoc1C(=O)N1CC[C@H]2O[C@@H](C)C[C@H]2C1 | MtTrpRS: 3.463%
* Cc1nn(C)c(Cl)c1C1CCCN1C(=O)c1ccc(O)nc1 (stereo not given) | MtTrpRS: 10.33%; Leishmania in macrophages: -9.764%
* O=C(O)C(F)(F)F.O[C@@H]1CCN(CC2CC2)[C@H]1Cc1ccccc1 | Leishmania in macrophages: 45.29%
* CC(=O)N(Cc1ncc(C)o1)C1CCN(Cc2nnc(C3CC3)o2)C1 (stereo not given) | MtTrpRS: -2.288%; Leishmania in macrophages: -25.41% and -41.6%